# Test results published in PMC7862700.
# Chains of the proteins cited; added tags and fusions are not shown. Lines headed by an entry give the natural chain unless they say otherwise; changes in a name come on top.
# UniProt Q9Y603: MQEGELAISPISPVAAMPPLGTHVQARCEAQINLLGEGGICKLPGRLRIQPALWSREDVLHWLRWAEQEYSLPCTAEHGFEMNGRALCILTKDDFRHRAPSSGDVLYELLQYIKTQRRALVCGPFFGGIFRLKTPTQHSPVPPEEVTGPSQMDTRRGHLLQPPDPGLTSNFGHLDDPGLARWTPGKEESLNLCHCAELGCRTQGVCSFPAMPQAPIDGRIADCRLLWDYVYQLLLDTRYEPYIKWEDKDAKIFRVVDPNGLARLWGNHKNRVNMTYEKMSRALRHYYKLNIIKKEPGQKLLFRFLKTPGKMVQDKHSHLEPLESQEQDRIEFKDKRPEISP
# The list shows a part of the results, in another mix than the full data. At the low end of the ranking the order means little.
# Target: ETV7 (UniProt Q9Y603)
# Assay: DAPPL (digital affinity profiling via proximity ligation, sequencing)
# Conditions: 10 mM Tris-HCl pH 7.5, 50 mM NaCl, 1 mM DTT, 4% glycerol, room temperature, 30 min; GST-TFs on glutathione beads, 16-mer random dsDNA library, 0.1% …; high values mean tight binding; double strand, one strand shown; scale: fold enrichment (6-mer frequency, TF over GST control)
row,Sequence,binding signal
1,TGGCTT,1.31
2,TCCACA,1.17
3,AAAAGA,1.1
4,CTACTC,1.13
5,AACAGC,1.21
6,ATTAAT,1.21
7,TTACTG,1.14
8,AAAACT,1.29
9,ATACAA,1.14
10,TTGAAT,1.09
11,CTCTGC,1.27
12,CCCGCA,1.31
13,ACTTCC,7.8
14,GTTCCA,1.12
15,GTTAAC,1.24
16,GAACCT,1.19
17,TCTACT,1.32
18,ATGATA,1.16
19,TATAGT,1.2
20,TGCACT,1.42

row,Sequence,binding signal
1,TCACGC,1.16
2,TTTAAA,1.36
3,AACCTT,1.29
4,ATGCAA,1.19
5,TAGTAC,1.17
6,TCGCTC,1.02
7,GTCTCA,1.13
8,ATGTCA,1.02
9,AATGCA,1.3
10,ATGGCC,1.44
11,CCTCCC,1.44
12,GTTTTC,1.36
13,ACTTTG,1.11
14,TGCTCT,1.24
15,TTAAAC,1.14
16,GTAACA,1.08
17,TTGCGT,0.963
18,AGTATC,1.13
19,AAGCAG,1.14

# Exported tab-delimited: entries from further up
row	Sequence	binding signal
1	TCACGC	1.16
2	TTTAAA	1.36
3	AACCTT	1.29
